Holding throughout (experiment): normalised response (% of control), CellTox Green; higher = less cell death (100 = DMSO, 0 = benzethonium chloride kill control)
Holding throughout (conditions): incubation time: 72 h

The subject of one test is BT-474. The method, then:
(§1)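 DSRT, 72 h incubation, CellTox Green / CellTiter-Glo readout. Signal is normalised to DMSO and benzethonium chloride controls. Value is the normalised response at the lowest tested concentration.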

Another test deals with BT-549. The method, then:
as §1

Another test relates to CAL-120. The method, then: as §1
The subject of the next test is CAL-148. The method, then: as §1
The subject of a further test is CAL-51. The method, then: as §1
The next test relates to CAL-85-1. The method, then: as §1
The test system of the next test is DU-4475. The method, then:
as §1

Another test concerns HCC1143. The method, then:
as §1

The test system of the next test is HCC1599. The method, then:
as §1

For the next test, the system named is HCC1937. The method, then: as §1
For a further test, the system named is HDQ-P1. The method, then:
as §1

In the next test the test system is Hs578T. The method, then: as §1
A further test deals with MCF-10A. The method, then:
as §1

Another test concerns MDA-MB-231. The method, then:
as §1

The next test relates to MDA-MB-436. The method, then:
as §1

The next test has as its system MDA-MB-453. The method, then:
as §1

Another test has as its system MDA-MB-468. The method, then: as §1
A further test relates to MFM-223. The method, then:
as §1

Most values lie at the level of the controls, where differences are scatter.

Take `CN(C)/N=N/c1[nH]cnc1C(N)=O` [Dacarbazine] (1 nM): the normalised response came out at 100% with BT-474; 93.1% in the test with BT-549; 97.3% in the test with CAL-120; 104% in the test with CAL-148; 104% with CAL-51; 106% in the test with CAL-85-1. Moreover, the normalised response in the test on DU-4475 is 105%; with HCC1143, 98.2%; with HCC1599 it was 108%; in the test with HCC1937 it was 100%; in the test with HDQ-P1, 104%; in the test on Hs578T, 96.8%. The normalised response came out at 99.2% with MCF-10A; 102% with MDA-MB-231; 90.4% with MDA-MB-436; 106% in the test on MDA-MB-453; 80.6% in the test on MDA-MB-468; 103% with MFM-223.
For `CN1CCN(c2ccc3nc(-c4c(N)c5c(F)cccc5[nH]c4=O)[nH]c3c2)CC1` [Dovitinib] (1 nM), the normalised response turned out to be 102% in the test on BT-474; 102% in the test with BT-549; 102% with CAL-120; 102% in the test on CAL-148; 121% in the test on CAL-51; 103% in the test with CAL-85-1. Also, the normalised response was 98.3% with DU-4475; 118% in the test with HCC1143; 99.5% in the test with HCC1599; 91.5% in the test with HCC1937; 94.5% in the test with HDQ-P1; 107% with Hs578T. Moreover, the normalised response is 104% with MCF-10A; 100% in the test with MDA-MB-231; 103% in the test on MDA-MB-453; 83.3% with MDA-MB-468; 95.6% in the test with MFM-223.
For `Cc1c(C(=O)Nc2ccc(N3C[C@@H](C)O[C@@H](C)C3)nc2)cccc1-c1ccc(OC(F)(F)F)cc1` [Erismodegib] (1 nM), the normalised response worked out at 104% in the test on BT-474; 96.4% in the test with BT-549; 94.1% with CAL-120; 93.4% in the test on CAL-148; 99.1% in the test with CAL-51; 103% in the test on CAL-85-1. In addition, the normalised response in the test on DU-4475 came to 97%; in the test with HCC1143, 99.9%; in the test with HCC1599 it was 99.8%; with HCC1937 it was 101%; in the test with HDQ-P1 it was 101%; in the test with Hs578T it was 93.4%. Also, the normalised response in the test with MCF-10A was 96.7%; with MDA-MB-231, 99%; in the test on MDA-MB-436 it was 87.1%; in the test on MDA-MB-453, 105%; in the test with MDA-MB-468, 104%; in the test with MFM-223, 83.1%.
As to `CCN(CC)CCCC(C)Nc1c2ccc(Cl)cc2nc2ccc(OC)cc12` (centres undefined) [Mepacrine] (5 nM), the normalised response in the test with BT-474 is 99.3%; in the test on BT-549, 90.3%; with CAL-120 it was 102%; with CAL-148 it was 91%; in the test on CAL-51, 99.9%; in the test with CAL-85-1, 97.2%. Besides, the normalised response in the test with DU-4475 turned out to be 105%; with HCC1143, 121%; with HCC1599, 110%; with HDQ-P1, 102%; in the test with Hs578T, 92.1%; with MCF-10A, 113%. Also, the normalised response amounted to 74% in the test with MDA-MB-436, 100% with MDA-MB-453, 75.9% in the test with MDA-MB-468 and 85% in the test with MFM-223.
With `C[C@H]1C[C@@H]2[C@H]([C@@H](O)C[C@@]3(C)[C@H]2CC[C@]3(O)C(=O)CO)[C@@]2(C)C=CC(=O)C=C12` [Methylprednisolone] (1 nM), the normalised response in the test with BT-474 came out at 101%; in the test with BT-549, 97.2%; in the test on CAL-120 it was 101%; with CAL-148 it was 107%; in the test on CAL-51 it was 119%; in the test with CAL-85-1, 106%. Further, the normalised response in the test on DU-4475 amounted to 102%; in the test on HCC1143, 121%; in the test on HCC1599 it was 83.8%; in the test with HCC1937 it was 101%; in the test on HDQ-P1, 88.1%; with Hs578T, 89.7%. The normalised response with MCF-10A worked out at 98.3%; in the test on MDA-MB-231, 114%; in the test with MDA-MB-436, 102%; in the test with MDA-MB-453, 106%; in the test on MDA-MB-468, 92.1%; with MFM-223 it was 103%.
On to `O=C(NC[C@H](O)CO)c1ccncc1Nc1ccc(I)cc1F` [Pimasertib] (1 nM), for which the normalised response in the test with BT-474 is 103%; in the test with BT-549, 104%; in the test on CAL-120, 96.3%; with CAL-51, 103%; in the test on CAL-85-1, 102%; in the test on DU-4475 it was 97.8%. Moreover, the normalised response turned out to be 78.7% in the test with HCC1143; 90.8% in the test with HCC1599; 76.4% in the test on HCC1937; 67% with HDQ-P1; 73.1% in the test with Hs578T; 88.5% in the test on MCF-10A. For the same molecule, the normalised response turned out to be 83.9% in the test with MDA-MB-231; 87.1% in the test on MDA-MB-436; 116% in the test with MDA-MB-453; 106% in the test on MDA-MB-468; 100% in the test on MFM-223.

For the origin of these results see the supplement of paper PMC4862054.
